Results are given in words; binding and its absence hold for the method and conditions named. Binding seen in cells or lysates may run through a third protein. A result given as binding can be weak or reduced; the word gives no strength. For some assays here: Sequences can lack the tags named with a protein.

Our source for the binding values is article PMC6629618.

Assay [1] deals with SHB1:YFP^C (Arabidopsis thaliana). The assay can be described thus: split reporter; BiFC in N. benthamiana leaf epidermal cells after agroinfiltration, pSPYNE and pSPYCE fusions under the CaMV 35S promoter, images 48-72 h after transfection, fluorescence or confocal microscope; also done in the dark (interaction less frequent).
In assay [2] the target is SHB1:GFP (Arabidopsis thaliana). In words: co-IP; protein extracts of 35S::SHB1:GFP and of 35S::CCA1:FLAG or 35S::LHY:MYC transgenic Arabidopsis seedlings mixed, 2-3 h at 4 °C, IP buffer (25 mM Tris-HCl pH 7.5, 150 mM NaCl, 0.1% Triton), precipitated with anti-GFP antibody, blots with anti-FLAG or anti-MYC.
For assay [3] the target is unchanged. The assay can be described thus: co-IP; 35S::SHB1:GFP transgenic plants in the dark and under red light; SHB1:GFP precipitated, endogenous CCA1 or LHY detected with anti-CCA1 or anti-LHY antibodies.

B1: LHY N173:YFP^N (domain or fragment, UniProt Q6R0H1 1-173)
chain: MDTNTSGEELLAKARKPYTITKQRERWTEDEHERFLEALRLYGRAWQRIEEHIGTKTAVQIRSHAQKFFTKLEKEAEVKGIPVCQALDIEIPPPRPKRKPNTPYPRKPGNNGTSSSQVSSAKDAKLVSSASSSQLNQAFLDLEKMPFSEKTSTGKENQDENCSGVSTVNKYPL
For B1, the binding result in assay [1] is given as “no binding”.

B2: LHY C487:YFP^N (domain or fragment, UniProt Q6R0H1 174-645)
chain: PTKQVSGDIETSKTSTVDNAVQDVPKKNKDKDGNDGTTVHSMQNYPWHFHADIVNGNIAKCPQNHPSGMVSQDFMFHPMREETHGHANLQATTASATTTASHQAFPACHSQDDYRSFLQISSTFSNLIMSTLLQNPAAHAAATFAASVWPYASVGNSGDSSTPMSSSPPSITAIAAATVAAATAWWASHGLLPVCAPAPITCVPFSTVAVPTPAMTEMDTVENTQPFEKQNTALQDQNLASKSPASSSDDSDETGVTKLNADSKTNDDKIEEVVVTAAVHDSNTAQKKNLVDRSSCGSNTPSGSDAETDALDKMEKDKEDVKETDENQPDVIELNNRKIKMRDNNSNNNATTDSWKEVSEEGRIAFQALFARERLPQSFSPPQVAENVNRKQSDTSMPLAPNFKSQDSCAADQEGVVMIGVGTCKSLKTRQTGFKPYKRCSMEVKESQVGNINNQSDEKVCKRLRLEGEAST
Consider B2, for which, in assay [1], the binding result was “binds”.

B3: LHY:YFP^N (protein, UniProt Q6R0H1 1-645)
chain: MDTNTSGEELLAKARKPYTITKQRERWTEDEHERFLEALRLYGRAWQRIEEHIGTKTAVQIRSHAQKFFTKLEKEAEVKGIPVCQALDIEIPPPRPKRKPNTPYPRKPGNNGTSSSQVSSAKDAKLVSSASSSQLNQAFLDLEKMPFSEKTSTGKENQDENCSGVSTVNKYPLPTKQVSGDIETSKTSTVDNAVQDVPKKNKDKDGNDGTTVHSMQNYPWHFHADIVNGNIAKCPQNHPSGMVSQDFMFHPMREETHGHANLQATTASATTTASHQAFPACHSQDDYRSFLQISSTFSNLIMSTLLQNPAAHAAATFAASVWPYASVGNSGDSSTPMSSSPPSITAIAAATVAAATAWWASHGLLPVCAPAPITCVPFSTVAVPTPAMTEMDTVENTQPFEKQNTALQDQNLASKSPASSSDDSDETGVTKLNADSKTNDDKIEEVVVTAAVHDSNTAQKKNLVDRSSCGSNTPSGSDAETDALDKMEKDKEDVKETDENQPDVIELNNRKIKMRDNNSNNNATTDSWKEVSEEGRIAFQALFARERLPQSFSPPQVAENVNRKQSDTSMPLAPNFKSQDSCAADQEGVVMIGVGTCKSLKTRQTGFKPYKRCSMEVKESQVGNINNQSDEKVCKRLRLEGEAST
B3: in assay [1], the binding entry is reported as “binds”.

B4: LHY:MYC (protein, UniProt Q6R0H1 1-645)
chain: B3 chain
For the molecule B4, the binding result in assay [2] is on record as “binds”.

B5: LHY (endogenous) (protein, UniProt Q6R0H1 1-645)
chain: B3 chain
Consider B5, for which the binding entry in assay [3] is “binds”.
